Assay results from PMC7954794, “Protein context shapes the specificity of SH3 domain-mediated interactions in vivo” (Nature Communications, 2021).
Some results come without the dose or concentration used.

B1: YGR281W (protein, UniProt P53049 1-1477, looked up)
Oligomycin resistance …: MTITVGDAVSETELENKSQNVVLSPKASASSDISTDVDKDTSSSWDDKSLLPTGEYIVDRNKPQTYLNSDDIEKVTESDIFPQKRLFSFLHSKKIPEVPQTDDERKIYPLFHTNIISNMFFWWVLPILRVGYKRTIQPNDLFKMDPRMSIETLYDDFEKNMIYYFEKTRKKYRKRHPEATEEEVMENAKLPKHTVLRALLFTFKKQYFMSIVFAILANCTSGFNPMITKRLIEFVEEKAIFHSMHVNKGIGYAIGACLMMFVNGLTFNHFFHTSQLTGVQAKSILTKAAMKKMFNASNYARHCFPNGKVTSFVTTDLARIEFALSFQPFLAGFPAILAICIVLLIVNLGPIALVGIGIFFGGFFISLFAFKLILGFRIAANIFTDARVTMMREVLNNIKMIKYYTWEDAYEKNIQDIRTKEISKVRKMQLSRNFLIAMAMSLPSIASLVTFLAMYKVNKGGRQPGNIFASLSLFQVLSLQMFFLPIAIGTGIDMIIGLGRLQSLLEAPEDDPNQMIEMKPSPGFDPKLALKMTHCSFEWEDYELNDAIEEAKGEAKDEGKKNKKKRKDTWGKPSASTNKAKRLDNMLKDRDGPEDLEKTSFRGFKDLNFDIKKGEFIMITGPIGTGKSSLLNAMAGSMRKTDGKVEVNGDLLMCGYPWIQNASVRDNIIFGSPFNKEKYDEVVRVCSLKADLDILPAGDMTEIGERGITLSGGQKARINLARSVYKKKDIYLFDDVLSAVDSRVGKHIMDECLTGMLANKTRILATHQLSLIERASRVIVLGTDGQVDIGTVDELKARNQTLINLLQFSSQNSEKEDEEQEAVVAGELGQLKYESEVKELTELKKKATEMSQTANSGKIVADGHTSSKEERAVNSISLKIYREYIKAAVGKWGFIALPLYAILVVGTTFCSLFSSVWLSYWTENKFKNRPPSFYMGLYSFFVFAAFIFMNGQFTILCAMGIMASKWLNLRAVKRILHTPMSYIDTTPLGRILNRFTKDTDSLDNELTESLRLMTSQFANIVGVCVMCIVYLPWFAIAIPFLLVIFVLIADHYQSSGREIKRLEAVQRSFVYNNLNEVLGGMDTIKAYRSQERFLAKSDFLINKMNEAGYLVVVLQRWVGIFLDMVAIAFALIITLLCVTRAFPISAASVGVLLTYVLQLPGLLNTILRAMTQTENDMNSAERLVTYATELPLEASYRKPEMTPPESWPSMGEIIFENVDFAYRPGLPIVLKNLNLNIKSGEKIGICGRTGAGKSTIMSALYRLNELTAGKILIDNVDISQLGLFDLRRKLAIIPQDPVLFRGTIRKNLDPFNERTDDELWDALVRGGAIAKDDLPEVKLQKPDENGTHGKMHKFHLDQAVEEEGSNFSLGERQLLALTRALVRQSKILILDEATSSVDYETDGKIQTRIVEEFGDCTILCIAHRLKTIVNYDRILVLEKGEVAEFDTPWTLFSQEDSIFRSMCSRSGIVENDFENRS
B2: YCR002C (protein, UniProt P25342 1-322, looked up)
Cell division control protein …: MDPLSSVQPASYVGFDTITNQIEHRLLKKGFQFNIMVVGQSGLGKSTLINTLFASHLIDSATGDDISALPVTKTTEMKISTHTLVEDRVRLNINVIDTPGFGDFIDNSKAWEPIVKYIKEQHSQYLRKELTAQRERFITDTRVHAILYFLQPNGKELSRLDVEALKRLTEIANVIPVIGKSDTLTLDERTEFRELIQNEFEKYNFKIYPYDSEELTDEELELNRSVRSIIPFAVVGSENEIEINGETFRGRKTRWSAINVEDINQCDFVYLREFLIRTHLQDLIETTSYIHYEGFRARQLIALKENANSRSSAHMSSNAIQR
B3: YKL051W (protein, UniProt P35735 1-353, looked up)
Protein SFK1: MIQFKSPGNWLFIVPWIAFIPWYGMLIAMLICWASQGHPIYWFMHSEQFPVYISDIGATNLRPLFISCAGWQGLGYVITVALEFFQRSGYLPFQLKKKDPSISDSTSYAEKLHSGKYLMPPYYTKDERNLIFAAFVLGSIGELALLFSSIFSTALYHRVHIAMVSVFVVFMFLSTCCLIAEYFLMGRHYASVHPLASPHFNPQSSEKSFNQDYNTVDELPWYKWKGHVWNKFTISATLKVIWLTLAVVWAICFGAINDRSKSACFEWLLAFWFGIIFMILSADFYLGGRYRQSRYFNHVESFSGYYKYDKALGLYHSEDVLPSDDNAGVIATETASSNIYNNSSSNESIQVVV
B4: YBR200W (protein, UniProt P29366 1-551, looked up)
Bud emergence protein 1: MLKNFKLSKRDSNGSKGRITSADISTPSHDNGSVIKHIKTVPVRYLSSSSTPVKSQRDSSPKNRHNSKDITSPEKVIKAKYSYQAQTSKELSFMEGEFFYVSGDEKDWYKASNPSTGKEGVVPKTYFEVFDRTKPSSVNGSNSSSRKVTNDSLNMGSLYAIVLYDFKAEKADELTTYVGENLFICAHHNCEWFIAKPIGRLGGPGLVPVGFVSIIDIATGYATGNDVIEDIKSVNLPTVQEWKSNIARYKASNISLGSVEQQQQQSITKPQNKSAKLVDGELLVKASVESFGLEDEKYWFLVCCELSNGKTRQLKRYYQDFYDLQVQLLDAFPAEAGKLRDAGGQWSKRIMPYIPGPVPYVTNSITKKRKEDLNIYVADLVNLPDYISRSEMVHSLFVVLNNGFDREFERDENQNNIKTLQENDTATFATASQTSNFASTNQDNTLTGEDLKLNKKLSDLSLSGSKQAPAQSTSGLKTTKIKFYYKDDIFALMLKGDTTYKELRSKIAPRIDTDNFKLQTKLFDGSGEEIKTDSQVSNIIQAKLKISVHDI
B5: YDR379W (protein, UniProt Q06407 1-1009, looked up)
Rho-type GTPase-activating …: MSADPINDQSSLCVRCNKSIASSQVYELESKKWHDQCFTCYKCDKKLNADSDFLVLDIGTLICYDCSDKCTNCGDKIDDTAIILPSSNEAYCSNCFRCCRCSNRIKNLKYAKTKRGLCCMDCHEKLLRKKQLLLENQTKNSSKEDFPIKLPERSVKRPLSPTRINGKSDVSTNNTAISKNLVSSNEDQQLTPQVLVSQERDESSLNDNNDNDNSKDREETSSHARTVSIDDILNSTLEHDSNSIEEQSLVDNEDYINKMGEDVTYRLLKPQRANRDSIVVKDPRIPNSNSNANRFFSIYDKEETDKDDTDNKENEIIVNTPRNSTDKITSPLNSPMAVQMNEEVEPPHGLALTLSEATKENNKSSQGIQTSTSKSMNHVSPITRTDTVEMKTSTSSSTLRLSDNGSFSRPQTADNLLPHKKVAPSPNKKLSRSFSLKSKNFVHNLKSKTSEMLDPKHPHHSTSIQESDTHSGWGVSSTHTNIRKSKAKKNPVSRGQSDSTIYNTLPQHGNFTVPEFNHKKAQSSLGSISKKQNSNDTATNRRINGSFTSSSSGHHIAMFRTPPLESGPLFKRPSLSSESAHHRSSSLQTSRSTNALLEDDSTKVDATDESATSLEKDFYFTELTLRKLKLDVRELEGTKKKLLQDVENLRLAKERLLNDVDNLTREKDKQSASSRESLEQKENIATSITVKSPSSNSDRKGSISNASPKPRFWKIFSSAKDHQVGDLESQQRSPNSSSGGTTNIAQKEISSPKLIRVHDELPSPGKVPLSPSPKRLDYTPDGSHLYGSSLQARCAYEKSTVPIIIRCCIDRIEKDDIGLNMEGLYRKSGSQTLVEEIENEFAQNNSLHSDTLSPKLNALLNQDIHAVASVLKRYLRKLPDPVLSFSIYDALIDLVRNNQLIERLPLNNDKFLDSPQKVTIYEMVLKSLLEIFKILPVEHQEVLKVLAAHIGKVRRCSERNLMNLHNLSLVFAPSLIHDFDGEKDIVDMKERNYIVEFILGNYRDIFKQA
B6: YML016C (protein, UniProt P26570 2-692, looked up)
Serine/threonine-protein …: GNSSSKSSKKDSHSNSSSRNPRPQVSRTETSHSVKSAKSNKSSRSRRSLPSSSTTNTNSNVPDPSTPSKPNLEVNHQRHSSHTNRYHFPSSSHSHSNSQNELLTTPSSSSTKRPSTSRRSSYNTKAAADLPPSMIQMEPKSPILKTNNSSTHVSKHKSSYSSTYYENALTDDDNDDKDNDISHTKRFSRSSNSRPSSIRSGSVSRRKSDVTHEEPNNGSYSSNNQENYLVQALTRSNSHASSLHSRKSSFGSDGNTAYSTPLNSPGLSKLTDHSGEYFTSNSTSSLNHHSSRDIYPSKHISNDDDIENSSQLSNIHASMENVNDKNNNITDSKKDPNEEFNDIMQSSGNKNAPKKFKKPIDIDETIQKLLDAGYAAKRTKNVCLKNNEILQICIKAREIFLSQPSLLELSPPVKIVGDVHGQYGDLLRLFTKCGFPPSSNYLFLGDYVDRGKQSLETILLLFCYKIKYPENFFLLRGNHECANVTRVYGFYDECKRRCNIKIWKTFIDTFNTLPLAAIVAGKIFCVHGGLSPVLNSMDEIRHVVRPTDVPDFGLINDLLWSDPTDSPNEWEDNERGVSYCYNKVAINKFLNKFGFDLVCRAHMVVEDGYEFFNDRSLVTVFSAPNYCGEFDNWGAVMSVSEGLLCSFELLDPLDSAALKQVMKKGRQERKLANQQQQMMETSITNDNESQQ
B7: YCR030C (protein, UniProt P25623 1-870, looked up)
Suppressor of yeast profilin …: MTEQRTKYADSILTTKSPYEATETIRIRLSQVKLLNKDFYLLFKELANLKRNYAQQLRKIIAENEDITKILNAQMIESNVLTPQEMSAFRFNSLGELRNVWDTVIEELKSDLKSSTEYYNTLDQQVVRELKESVENNTSWRESKDLHSKLSKNAASIEHYSKNNENSSHLEEARRQWDQQSPYLFELFETIDYNRLDTLKNCMLRFQTSFSDYLLNTTKECETVMTKFLAFEPQSEIDRFAKDASQYNFQLSSSSKEVVPNNASPASATGARPVSVSNGAANTEREKKSPQKDKRKSAFGNIGHRLASASSSLTHNDLMNNEFSDSTNNSSLKSKKSSHTLRSKVGSIFGRNKTKNKRQQQSSSNSHIQASITETPNNSSTRVSSTATSSIYQKQRRPTYSSSKSNNWTPGEASDTPPLPPHATPKNVDAPVTADTPPAQTFTPSEVPPSTPQQSSPPTAKEPDSSNLPKTVPISISQPPLQPQSKTKPLPVEPASPSISLPTATVDNQPSGQVDSRPLHIRAPALPPSRKQNFIHNRDSQLYDSLPNHGSGATPTSSSLSSIPQERPVSTLSSQITGELRELNPQATGSSTSLVGQSLFQHSSLDTSQFGLNASIAEVLNASFKDGMLQNSQLIGEIALNYLPNSVMNSPLPIGINLRINNGAKFEKVILNQAFIERVAPEEFKVNPSFIDSRTLGAIKYSIKEPIAPIVIHPVWRFESHQASVVLTVKMSPSLPDEISQIVIEDLVVFVNIDGANATSALSKPQGSFSKEKKRITWRFKEPVVLTRNGEGQRLIARFITDGLAHESAKGVITKFTISETDNVALPHSGAGSGITLTCQELDENNPFGGEWLDVNTKRTLTTGNYHGLA

tested on: BOI1; experiment: DHFR-PCA on solid medium, bait BOI1 (Fig. 1B); type: cell-based, Saccharomyces cerevisiae; set-up: key: 0: SH3-independent; 1: SH3-dependent PPIs; 2: SH3-inhibited PPIs; conditions: bait BOI1, label = prey
Description: (§1) Supplement 41467_2021_21873_MOESM8_ESM.xlsx, sheet "Fig1B" | column: medsize; medrep; Ratio; Score

| Molecule | Score |
| --- | --- |
| B1 | 2 |
| B2 | 1 |
| B3 | 2 |
| B4 | 0 |
| B5 | 2 |
| B6 | 2 |

tested on: BUD14; experiment: DHFR-PCA on solid medium, bait BUD14 (Fig. 1B); type: cell-based, Saccharomyces cerevisiae; set-up: key: 0: SH3-independent; 1: SH3-dependent PPIs; 2: SH3-inhibited PPIs; conditions: bait BUD14, label = prey
Description: as §1

| Molecule | Score |
| --- | --- |
| B7 | 0 |

tested on: BOI2; experiment: DHFR-PCA on solid medium, bait BOI2 (Fig. 1B); type: cell-based, Saccharomyces cerevisiae; set-up: key: 0: SH3-independent; 1: SH3-dependent PPIs; 2: SH3-inhibited PPIs; conditions: bait BOI2, label = prey
Description: as §1

| Molecule | Score |
| --- | --- |
| B1 | 0 |
| B2 | 0 |
| B3 | 0 |
| B4 | 0 |
| B5 | 0 |
| B6 | 0 |

tested on: BBC1; experiment: DHFR-PCA on solid medium, bait BBC1 (Fig. 1B); type: cell-based, Saccharomyces cerevisiae; set-up: key: 0: SH3-independent; 1: SH3-dependent PPIs; 2: SH3-inhibited PPIs; conditions: bait BBC1, label = prey
Description: as §1

| Molecule | Score |
| --- | --- |
| B1 | 1 |
| B3 | 0 |
| B6 | 1 |
